Source: paper PMC10724061

Biological target: Flag–FIO1–GFP (Arabidopsis)
Assay: co-IP; 6-day-old Arabidopsis plants pACT2::Flag–FIO1–GFP x 35S::SPA1–Myc grown under blue light (25 μmol m^−2 s^−1); Flag resin for IP; blot with anti-Flag or anti-Myc

binding: binds
B1: SPA1–Myc (protein, UniProt Q9SYX2 1-1029)
chain: MPVMERVAEETVATNNIQLKARVDDVPCNKLDARHNDMVIQSETANSDCPGSSAHRNVDLTKPPPPEEAAGAKLSVEELTLGNYRIVQGSNNTNVDSPRAGKFEHLYRLARGSAFRAGDGDLDSQPRDMDQMLSRIRQQLAGAPSERQNLKPFMSRRSDQNLEAFSERLRAAGENSIMNAPALISEGVQMKTPVSSSNFSQLLLKRAMKGKGVVGKNQETPPEFVSDQDLGSKEKKLDISKSPTPHDVLPLKSSPKGNGMVSHGDGNHSKSSIGISLREFLRSSYAKREKRHGLCLFRQLVELVDSAHSKRLFLLDLRPSLFTLVPSKKLRYIGNFGKNDLESDVDEDLNRRRPVVEESSSGGRDSKKRKMDLHLNSPGNQLQATSTGRPFKRKSPVIDLNMVDARNPDSCELQQQDYIKNLSVSSVSRKQSMSTWLEEQWYTCPEEINGEDIGEKSNIYALGVLLFELLCHCESGEMHAAMMADLRHRILPPTFLSKYPKEAGFCLWLLHPEPSSRPSARDILKSELICEDDSVKSTAAAEEISELLLHFLSSLEVQKKKKASKLLQDIQTLEDDIKEAERRYSSNVSLVRSHGAIEKRVQSSPLDEHCTTSSALFVPTANTDRLMSNIRQLEDAYFFMRSQINLSSSAATARSDKTLKDRDRCSENQNENQDMSTKGKSSDQLEVFFEGLCKFARYSKFETCGTIRSGDLLNSASVVCSLSFDPDEEHIAAAGISKKIKIFDFNAFMNESVGVHYPLVEMVNKSKLSCVCWNSYIKNYLASTDYDGVVQIWDAGTGQGFSQYTEHQKRAWSVDFSPSDPTKFVSGSDDCSVKLWSINEKRSLGTIWSPANVCCVQFSSYSNHLLAFGSADYKVYCYDLRYVKTPWCTLAGHEKAVSYVKFMDSETIVSASTDNSLKLWNLNKTNSSGLSPGACSLTYKGHTNQKNFVGLSVLDGYIACGSETNEVYSYYKSLPMPMTSYKFGSVDPISGNEYFDDNGQFVSSVCWRKKSNMLVAANSTGNMKLLKLV

These are yes or no findings as the source states them, for the method shown. In cells and extracts the contact can be indirect. Binding calls can cover weak binding; strength is not graded here. Sequences can lack the tags named with a protein.
